Data reported in the supplement of paper PMC10849652.
This is one part of the list.

The chains behind the UniProt entries cited, without tags or fusion partners. Where a name states a change or a piece, a line headed by the entry shows the natural chain unless it says otherwise.
UniProt O43920, whole entry, looked up: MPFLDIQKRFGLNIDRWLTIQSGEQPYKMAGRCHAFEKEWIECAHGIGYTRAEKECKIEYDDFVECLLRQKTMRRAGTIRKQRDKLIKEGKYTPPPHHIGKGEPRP
UniProt O43776: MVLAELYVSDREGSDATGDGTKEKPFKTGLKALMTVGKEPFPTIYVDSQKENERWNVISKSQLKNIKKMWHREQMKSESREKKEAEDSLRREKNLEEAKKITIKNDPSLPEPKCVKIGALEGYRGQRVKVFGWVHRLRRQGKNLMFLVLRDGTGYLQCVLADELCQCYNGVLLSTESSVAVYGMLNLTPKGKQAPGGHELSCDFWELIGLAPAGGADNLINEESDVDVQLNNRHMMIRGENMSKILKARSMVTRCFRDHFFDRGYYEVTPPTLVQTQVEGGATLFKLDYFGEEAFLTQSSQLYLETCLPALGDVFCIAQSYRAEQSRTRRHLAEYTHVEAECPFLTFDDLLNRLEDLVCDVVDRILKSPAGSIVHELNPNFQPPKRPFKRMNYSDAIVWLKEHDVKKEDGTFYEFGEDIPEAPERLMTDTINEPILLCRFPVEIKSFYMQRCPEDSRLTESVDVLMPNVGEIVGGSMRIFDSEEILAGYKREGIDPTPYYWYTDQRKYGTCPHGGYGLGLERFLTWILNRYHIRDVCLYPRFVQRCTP
UniProt Q9UHQ1: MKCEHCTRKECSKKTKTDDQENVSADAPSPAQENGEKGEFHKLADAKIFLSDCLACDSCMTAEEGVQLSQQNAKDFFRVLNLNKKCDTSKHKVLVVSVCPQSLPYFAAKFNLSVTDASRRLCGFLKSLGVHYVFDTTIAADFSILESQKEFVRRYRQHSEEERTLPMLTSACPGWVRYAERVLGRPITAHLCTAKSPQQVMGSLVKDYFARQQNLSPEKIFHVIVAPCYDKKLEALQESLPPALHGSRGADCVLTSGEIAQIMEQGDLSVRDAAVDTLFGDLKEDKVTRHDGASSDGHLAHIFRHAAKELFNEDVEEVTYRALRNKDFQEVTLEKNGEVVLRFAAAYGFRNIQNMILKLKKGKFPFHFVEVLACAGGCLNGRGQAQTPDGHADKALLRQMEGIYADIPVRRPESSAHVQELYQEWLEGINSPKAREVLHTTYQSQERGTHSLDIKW
UniProt P42695: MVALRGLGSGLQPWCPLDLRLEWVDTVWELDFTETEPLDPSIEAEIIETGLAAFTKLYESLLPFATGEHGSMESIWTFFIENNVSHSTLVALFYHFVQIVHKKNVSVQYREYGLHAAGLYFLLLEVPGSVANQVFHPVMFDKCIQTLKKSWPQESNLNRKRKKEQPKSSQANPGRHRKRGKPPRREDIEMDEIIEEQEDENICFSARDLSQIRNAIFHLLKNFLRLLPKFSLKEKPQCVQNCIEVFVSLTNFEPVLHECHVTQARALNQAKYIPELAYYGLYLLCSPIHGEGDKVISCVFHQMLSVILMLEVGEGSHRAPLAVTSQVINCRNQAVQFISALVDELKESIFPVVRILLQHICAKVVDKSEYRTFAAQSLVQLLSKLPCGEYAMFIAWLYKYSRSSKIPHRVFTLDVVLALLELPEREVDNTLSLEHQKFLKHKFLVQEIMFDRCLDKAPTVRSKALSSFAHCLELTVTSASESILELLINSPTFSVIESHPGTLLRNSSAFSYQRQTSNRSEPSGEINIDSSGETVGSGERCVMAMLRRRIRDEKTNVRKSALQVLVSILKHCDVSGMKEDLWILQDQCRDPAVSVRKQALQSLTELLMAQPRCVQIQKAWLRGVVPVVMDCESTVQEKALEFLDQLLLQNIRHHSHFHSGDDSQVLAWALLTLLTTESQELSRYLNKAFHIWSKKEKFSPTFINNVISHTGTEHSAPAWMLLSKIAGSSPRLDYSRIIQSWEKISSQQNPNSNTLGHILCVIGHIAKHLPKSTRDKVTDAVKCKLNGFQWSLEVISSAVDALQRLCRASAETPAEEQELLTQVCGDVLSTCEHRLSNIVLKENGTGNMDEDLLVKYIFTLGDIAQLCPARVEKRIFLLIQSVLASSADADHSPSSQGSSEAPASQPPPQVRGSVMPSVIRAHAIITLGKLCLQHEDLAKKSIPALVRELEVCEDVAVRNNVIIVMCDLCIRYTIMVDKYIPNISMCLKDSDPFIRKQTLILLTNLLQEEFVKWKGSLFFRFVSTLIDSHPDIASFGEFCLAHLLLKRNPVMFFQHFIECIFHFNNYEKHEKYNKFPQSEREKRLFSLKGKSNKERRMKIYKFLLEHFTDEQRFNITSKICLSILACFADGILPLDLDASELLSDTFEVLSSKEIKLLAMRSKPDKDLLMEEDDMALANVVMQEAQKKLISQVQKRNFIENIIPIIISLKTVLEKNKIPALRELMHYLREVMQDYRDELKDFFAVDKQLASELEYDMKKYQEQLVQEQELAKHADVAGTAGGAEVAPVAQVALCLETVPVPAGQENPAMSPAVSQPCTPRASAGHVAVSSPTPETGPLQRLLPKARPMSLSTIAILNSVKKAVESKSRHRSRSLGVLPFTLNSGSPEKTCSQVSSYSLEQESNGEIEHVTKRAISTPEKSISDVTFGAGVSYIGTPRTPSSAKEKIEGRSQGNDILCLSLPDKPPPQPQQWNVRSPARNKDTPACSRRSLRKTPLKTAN
UniProt Q6P582, whole entry, looked up: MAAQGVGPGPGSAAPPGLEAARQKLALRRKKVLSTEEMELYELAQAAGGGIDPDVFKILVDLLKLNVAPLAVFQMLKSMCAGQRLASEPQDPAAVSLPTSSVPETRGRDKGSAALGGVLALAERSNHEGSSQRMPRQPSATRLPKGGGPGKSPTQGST
UniProt Q9UBB6: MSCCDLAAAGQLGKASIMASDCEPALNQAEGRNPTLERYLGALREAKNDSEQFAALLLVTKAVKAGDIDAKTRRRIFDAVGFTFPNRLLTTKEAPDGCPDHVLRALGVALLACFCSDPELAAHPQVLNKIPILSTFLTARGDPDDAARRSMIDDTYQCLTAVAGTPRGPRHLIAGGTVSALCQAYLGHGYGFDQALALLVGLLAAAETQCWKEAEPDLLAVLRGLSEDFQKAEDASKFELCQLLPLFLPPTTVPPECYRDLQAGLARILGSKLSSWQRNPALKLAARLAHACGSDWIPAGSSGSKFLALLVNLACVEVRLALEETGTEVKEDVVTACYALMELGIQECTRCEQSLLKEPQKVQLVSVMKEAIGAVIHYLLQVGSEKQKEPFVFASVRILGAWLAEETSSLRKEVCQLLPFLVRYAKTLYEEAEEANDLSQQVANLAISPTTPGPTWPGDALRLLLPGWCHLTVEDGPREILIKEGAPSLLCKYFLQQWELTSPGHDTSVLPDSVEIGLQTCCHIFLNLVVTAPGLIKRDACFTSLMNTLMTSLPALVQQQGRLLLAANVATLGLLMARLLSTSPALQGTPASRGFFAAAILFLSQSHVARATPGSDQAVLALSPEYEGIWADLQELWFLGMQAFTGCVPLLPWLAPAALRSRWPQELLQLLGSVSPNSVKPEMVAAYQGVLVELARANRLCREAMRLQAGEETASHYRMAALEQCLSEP
UniProt Q6IA69: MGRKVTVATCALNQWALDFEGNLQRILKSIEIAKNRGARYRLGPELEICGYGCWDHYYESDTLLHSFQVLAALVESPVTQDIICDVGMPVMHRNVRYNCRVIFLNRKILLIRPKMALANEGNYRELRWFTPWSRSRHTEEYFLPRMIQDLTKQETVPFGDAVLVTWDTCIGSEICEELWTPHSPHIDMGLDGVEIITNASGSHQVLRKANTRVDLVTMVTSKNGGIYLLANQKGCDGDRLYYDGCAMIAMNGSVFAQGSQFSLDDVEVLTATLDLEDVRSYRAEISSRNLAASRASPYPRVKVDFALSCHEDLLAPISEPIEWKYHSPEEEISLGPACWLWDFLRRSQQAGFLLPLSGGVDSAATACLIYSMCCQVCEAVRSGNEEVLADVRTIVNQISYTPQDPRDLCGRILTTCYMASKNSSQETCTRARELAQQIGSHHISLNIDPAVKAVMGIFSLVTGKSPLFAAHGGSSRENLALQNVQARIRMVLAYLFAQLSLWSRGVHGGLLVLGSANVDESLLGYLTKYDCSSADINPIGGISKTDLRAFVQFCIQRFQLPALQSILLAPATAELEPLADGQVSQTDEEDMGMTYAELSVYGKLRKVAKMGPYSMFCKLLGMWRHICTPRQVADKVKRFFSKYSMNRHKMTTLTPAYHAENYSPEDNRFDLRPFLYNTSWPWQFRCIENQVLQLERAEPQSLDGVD
UniProt Q8NC96: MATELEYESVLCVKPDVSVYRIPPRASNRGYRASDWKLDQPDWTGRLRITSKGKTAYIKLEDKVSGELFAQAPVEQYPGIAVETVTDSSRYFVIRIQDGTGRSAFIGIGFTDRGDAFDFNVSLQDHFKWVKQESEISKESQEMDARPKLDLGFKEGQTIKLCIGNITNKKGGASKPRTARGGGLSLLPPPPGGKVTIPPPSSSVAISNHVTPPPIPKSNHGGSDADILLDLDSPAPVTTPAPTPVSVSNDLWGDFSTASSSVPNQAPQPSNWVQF
UniProt O75380, whole entry, looked up: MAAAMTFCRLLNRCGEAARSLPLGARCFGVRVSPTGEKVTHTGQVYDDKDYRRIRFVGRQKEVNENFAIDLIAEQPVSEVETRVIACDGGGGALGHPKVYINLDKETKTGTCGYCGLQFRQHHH
UniProt Q9NX14, whole entry, looked up: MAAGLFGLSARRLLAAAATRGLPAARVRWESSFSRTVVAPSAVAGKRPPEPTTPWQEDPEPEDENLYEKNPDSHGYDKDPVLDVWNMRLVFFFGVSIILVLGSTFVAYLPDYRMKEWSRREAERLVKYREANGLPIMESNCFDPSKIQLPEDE
UniProt P41227: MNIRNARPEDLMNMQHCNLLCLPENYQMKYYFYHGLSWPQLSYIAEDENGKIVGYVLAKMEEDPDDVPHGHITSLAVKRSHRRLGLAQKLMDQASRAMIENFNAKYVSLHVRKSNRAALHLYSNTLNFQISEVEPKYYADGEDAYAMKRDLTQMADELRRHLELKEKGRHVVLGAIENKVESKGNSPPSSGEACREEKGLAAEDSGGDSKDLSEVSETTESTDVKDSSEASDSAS
UniProt Q99733: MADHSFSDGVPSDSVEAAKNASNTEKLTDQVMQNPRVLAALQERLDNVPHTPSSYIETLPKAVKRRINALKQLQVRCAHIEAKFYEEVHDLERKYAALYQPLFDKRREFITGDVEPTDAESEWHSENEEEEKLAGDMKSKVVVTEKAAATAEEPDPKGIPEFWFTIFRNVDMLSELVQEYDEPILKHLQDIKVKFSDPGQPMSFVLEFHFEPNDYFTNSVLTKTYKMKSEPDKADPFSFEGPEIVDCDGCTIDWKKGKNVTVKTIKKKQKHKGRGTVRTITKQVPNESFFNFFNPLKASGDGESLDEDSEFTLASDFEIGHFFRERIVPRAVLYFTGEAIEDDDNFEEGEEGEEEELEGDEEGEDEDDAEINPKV
UniProt P56181: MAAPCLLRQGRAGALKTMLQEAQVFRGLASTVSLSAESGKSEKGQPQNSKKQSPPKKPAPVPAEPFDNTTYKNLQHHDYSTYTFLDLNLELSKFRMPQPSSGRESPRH
UniProt Q8NCW5: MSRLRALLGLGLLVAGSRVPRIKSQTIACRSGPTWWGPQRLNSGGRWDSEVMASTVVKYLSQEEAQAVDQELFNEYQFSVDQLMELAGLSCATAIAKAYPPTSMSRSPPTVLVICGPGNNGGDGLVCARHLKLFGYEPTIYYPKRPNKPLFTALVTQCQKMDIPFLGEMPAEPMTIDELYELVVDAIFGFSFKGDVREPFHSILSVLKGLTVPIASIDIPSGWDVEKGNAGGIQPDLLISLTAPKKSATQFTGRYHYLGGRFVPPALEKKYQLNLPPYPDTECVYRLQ

Tests used:
Test in all cases: log2 fold change, soluble protein after heating vs DMSO (PISA); higher = thermal stabilisation; K562 cells, 10 uM, 30 min; active = over 0.2 and 3.5 SD of the protein, either way, in both replicates (recomputed)
[1] = compound: CS(=O)(=O)c1ccc(-c2cnc(N)c(C(=O)Nc3ccccc3)n2)cc1
Method in brief: (§1)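 Soluble protein was quantified by TMTpro 16plex LC-MS/MS after channel sums were equalised. It was obtained as the supernatant after 21,000xg for 90 min from pooled aliquots of K562 cells (2×10^6 cells/mL, 10 μM compound, 30 min) heated for 3 min across 48°C-58°C and extracted in PBS with 0.5% NP-40 at 4°C. Thermal stability values are relative to control samples and come from duplicates. They are given as log2 fold changes.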

[2] = compound: C[C@@H](Oc1cc(-c2cnn(C3CCNCC3)c2)cnc1N)c1c(Cl)ccc(F)c1Cl [crizotinib]
Method in brief: as §1

[3] = compound: C[C@@H]1COCCN1C2=NC(=NC(=C2)C3(CC3)S(=O)(=O)C)C4=C5C=CNC5=CC=C4
Method in brief: as §1

[4] = compound: C[C@H](C1=CC=C(C=C1)C(=O)NC2=C3C=CNC3=NC=C2)N
Method in brief: as §1

[5] = compound: C[C@H](Nc1ncnc2nc[nH]c12)c1cc2cccc(Cl)c2c(=O)n1-c1ccccc1 [duvelisib]
Method in brief: as §1

[6] = compound: Cc1cc(Nc2cc(CN3CCOCC3)c3nc(C)c(Cc4ccc(Cl)cc4F)n3n2)n[nH]1 [gandotinib]
Method in brief: as §1

[7] = compound: Cc1cc(Nc2cc(N3CCN(C)CC3)nc(Sc3ccc(NC(=O)C4CC4)cc3)n2)n[nH]1 [tozasertib]
Method in brief: as §1

[8] = compound: Cc1cc(SCc2sc(-c3ccc(C(F)(F)F)cc3)nc2C)ccc1OCC(=O)O
Method in brief: as §1

[9] = compound: Cc1ccc(-n2nc(C(C)(C)C)cc2NC(=O)Nc2ccc(OCCN3CCOCC3)c3ccccc23)cc1 [doramapimod]
Method in brief: as §1

[10] = compound: Cc1ccc(C(=O)N(CCCN)[C@@H](c2nc3cc(Cl)ccc3c(=O)n2Cc2ccccc2)C(C)C)cc1 [ispinesib]
Method in brief: as §1

[11] = compound: Cc1ccc(NC(=O)c2ccc(CN3CC[C@H](N(C)C)C3)c(C(F)(F)F)c2)cc1Nc1nccc(-c2cncnc2)n1 [bafetinib]
Method in brief: as §1

[12] = compound: Cc1cccc(CC(=O)N2CCc3c2ccc(-c2cn(C)c4ncnc(N)c24)c3F)n1
Method in brief: as §1

[13] = compound: Cc1cn(-c2cc(NC(=O)c3ccc(C)c(Nc4nccc(-c5cccnc5)n4)c3)cc(C(F)(F)F)c2)cn1 [nilotinib]
Method in brief: as §1

[14] = compound: Cc1nc(Nc2n[nH]c3c2CN(C(=O)N[C@H](CN(C)C)c2ccccc2)C3(C)C)c2sccc2n1
Method in brief: as §1

[15] = compound: Cc1nc(Nc2ncc(C(=O)Nc3c(C)cccc3Cl)s2)cc(N2CCN(CCO)CC2)n1 [dasatinib]
Method in brief: as §1

[16] = compound: Cc1ncc(-c2ccnc(Nc3ccc(S(C)(=O)=O)cc3)n2)n1C(C)C
Method in brief: as §1

[17] = compound: Cn1cc(-c2ccc3c(c2)CCN3C(=O)Cc2cccc(C(F)(F)F)c2)c2c(N)ncnc21
Method in brief: as §1

[18] = compound: Cn1cc(-c2ccc3nnc(C(F)(F)c4ccc5ncccc5c4)n3n2)cn1
Method in brief: as §1

[19] = compound: Cn1cncc1[C@@](N)(c1ccc(Cl)cc1)c1ccc2c(c1)c(-c1cccc(Cl)c1)cc(=O)n2C [tipifarnib]
Method in brief: as §1

[20] = compound: FC(F)(F)c1ccc(/C=C/c2nc(COc3ccc(CCCCn4ccnn4)cc3)co2)cc1 [mubritinib]
Method in brief: as §1

Measured: log2 fold change

NDUFS5 (UniProt O43920)
inactive: [1] 0.022 | [2] -0.008 | [3] 0.01 | [4] 0.034 | [5] 0.051 | [6] -0.007 | [7] 0 | [8] -0.006 | [9] 0.011 | [10] -0.124 | [11] -0.109 | [12] -0.086 | [13] -0.016 | [14] 0.032 | [15] 0.004 | [16] -0.003 | [17] 0.001 | [18] -0.016 | [19] 0.024 | [20] 0.023

NARS1 (UniProt O43776)
inactive: [1] -0.002 | [2] 0.032 | [3] -0.018 | [4] 0.028 | [5] 0.002 | [6] -0.022 | [7] -0.03 | [8] -0.036 | [9] 0.007 | [10] 0.004 | [11] 0 | [12] -0.035 | [13] 0.011 | [14] 0.004 | [15] 0.044 | [16] 0.001 | [17] -0.007 | [18] 0.011 | [19] 0.033 | [20] 0.009

NARF (UniProt Q9UHQ1)
inactive: [1] 0.007 | [2] 0.047 | [3] -0.012 | [4] -0.007 | [5] -0.036 | [6] -0.001 | [7] -0.008 | [8] -0.024 | [9] 0.021 | [10] 0.033 | [11] -0.083 | [12] 0.044 | [13] -0.017 | [14] -0.044 | [15] -0.01 | [16] 0.048 | [17] 0.006 | [18] -0.006 | [19] 0.006 | [20] 0.027

NAA15, A0A0B4J1W3
inactive: [1] -0.15 | [2] -0.009 | [3] 0.088 | [4] -0.083 | [5] 0.151 | [6] -0.123 | [7] -0.006 | [8] 0.069 | [9] -0.237 | [10] 0.105 | [11] -0.04 | [12] 0.042 | [13] -0.083 | [14] 0.079 | [15] 0 | [16] -0.074 | [17] -0.001 | [18] -0.043 | [19] 0.007 | [20] -0.133

NCAPD3 (UniProt P42695)
inactive: [1] -0.009 | [2] -0.005 | [3] -0.004 | [4] -0.018 | [5] -0.007 | [6] 0.005 | [7] 0.101 | [8] 0.091 | [9] 0.034 | [10] -0.034 | [11] -0.104 | [12] -0.035 | [13] -0.069 | [14] 0.027 | [15] -0.008 | [16] -0.01 | [17] -0.017 | [18] 0.073 | [19] 0.004 | [20] 0.102

MZT2A (UniProt Q6P582)
inactive: [1] -0.084 | [2] 0.039 | [3] 0.057 | [4] -0.058 | [5] 0.111 | [6] -0.316 | [7] -0.014 | [8] -0.008 | [9] -0.005 | [10] -0.032 | [11] -0.006 | [12] 0.358 | [13] 0.034 | [14] -0.021 | [15] -0.083 | [16] -0.099 | [17] 0.061 | [18] 0.005 | [19] 0.017 | [20] -0.007

NCDN isoform 3 (UniProt Q9UBB6)
inactive: [1] 0.077 | [2] -0.171 | [3] 0.063 | [4] 0.043 | [5] 0.061 | [6] -0.026 | [7] 0.024 | [8] 0.05 | [9] -0.031 | [10] -0.106 | [11] -0.009 | [12] -0.021 | [13] -0.108 | [14] -0.101 | [15] -0.152 | [16] 0.002 | [17] -0.028 | [18] 0.018 | [19] 0.018 | [20] 0.128

2 records picked at random from the list so far, as already listed:
NDUFS5 (UniProt O43920)
inactive: [1] 0.022 | [2] -0.008 | [3] 0.01 | [4] 0.034 | [5] 0.051 | [6] -0.007 | [7] 0 | [8] -0.006 | [9] 0.011 | [10] -0.124 | [11] -0.109 | [12] -0.086 | [13] -0.016 | [14] 0.032 | [15] 0.004 | [16] -0.003 | [17] 0.001 | [18] -0.016 | [19] 0.024 | [20] 0.023

MZT2A (UniProt Q6P582)
inactive: [1] -0.084 | [2] 0.039 | [3] 0.057 | [4] -0.058 | [5] 0.111 | [6] -0.316 | [7] -0.014 | [8] -0.008 | [9] -0.005 | [10] -0.032 | [11] -0.006 | [12] 0.358 | [13] 0.034 | [14] -0.021 | [15] -0.083 | [16] -0.099 | [17] 0.061 | [18] 0.005 | [19] 0.017 | [20] -0.007

Carrying on:

NADSYN1 (UniProt Q6IA69)
inactive: [1] 0.037 | [2] 0.057 | [3] 0.156 | [4] -0.126 | [5] 0.004 | [6] 0.038 | [7] -0.023 | [8] -0.036 | [9] 0.004 | [10] 0.119 | [11] -0.005 | [12] 0.023 | [13] 0.03 | [14] -0.015 | [15] 0.03 | [16] -0.035 | [17] 0.019 | [18] 0.008 | [19] -0.016 | [20] 0.026

NECAP1 (UniProt Q8NC96)
inactive: [1] 0.04 | [2] -0.005 | [3] 0.114 | [4] -0.022 | [5] 0.069 | [6] 0.007 | [7] 0.061 | [8] 0.073 | [9] -0.027 | [10] -0.039 | [11] -0.025 | [12] -0.016 | [13] -0.048 | [14] -0.043 | [15] -0.074 | [16] -0.038 | [17] 0.046 | [18] -0.011 | [19] -0.051 | [20] 0.038

NDUFS6 (UniProt O75380)
inactive: [1] -0.001 | [2] -0.082 | [3] 0.025 | [4] 0.071 | [5] -0.026 | [6] 0.04 | [7] -0.084 | [8] -0.053 | [9] 0.034 | [10] -0.081 | [11] 0.015 | [12] -0.023 | [13] 0.063 | [14] 0.045 | [15] 0.112 | [16] -0.071 | [17] -0.037 | [18] -0.015 | [19] 0.101 | [20] 0.097

NDUFB11 isoform 2 (UniProt Q9NX14)
inactive: [1] -0.012 | [2] 0.086 | [3] 0.027 | [4] -0.059 | [5] 0.039 | [6] 0.017 | [7] 0.045 | [8] -0.011 | [9] -0.016 | [10] -0.036 | [11] -0.063 | [12] -0.044 | [13] 0.003 | [14] 0.022 | [15] 0.019 | [16] -0.02 | [17] 0.119 | [18] 0.035 | [19] -0.044 | [20] 0.026

NAA10 (UniProt P41227)
inactive: [1] 0.013 | [2] 0.001 | [3] 0.071 | [4] -0.064 | [5] -0.008 | [6] -0.044 | [7] 0 | [8] 0.038 | [9] -0.019 | [10] 0.04 | [11] -0.027 | [12] 0.018 | [13] -0.041 | [14] -0.007 | [15] -0.06 | [16] -0.018 | [17] 0.027 | [18] 0.008 | [19] -0.032 | [20] -0.014

NAP1L4 isoform 2 (UniProt Q99733)
inactive: [1] 0.022 | [2] 0.046 | [3] 0.009 | [4] -0.038 | [5] 0.008 | [6] -0.073 | [7] 0.01 | [8] -0.001 | [9] -0.008 | [10] 0.091 | [11] -0.033 | [12] -0.031 | [13] 0.028 | [14] -0.028 | [15] 0.012 | [16] 0.021 | [17] -0.023 | [18] 0 | [19] -0.044 | [20] -0.001

NCOR2 (UniProt C9J0Q5)
inactive: [1] 0.017 | [2] 0.01 | [3] -0.01 | [4] 0.066 | [5] 0 | [6] -0.102 | [7] -0.042 | [8] 0.015 | [9] 0.056 | [10] 0.111 | [11] 0.005 | [12] 0.035 | [13] -0.012 | [14] 0.004 | [15] -0.026 | [16] -0.137 | [17] 0.02 | [18] 0.292 | [19] -0.023 | [20] 0.094

NDUFV3 isoform 2 (UniProt P56181)
inactive: [1] -0.017 | [2] -0.034 | [3] 0.022 | [4] -0.023 | [5] -0.053 | [6] -0.01 | [7] -0.054 | [8] -0.092 | [9] 0.009 | [10] -0.027 | [11] -0.058 | [12] -0.104 | [13] 0.038 | [14] 0.054 | [15] 0.041 | [16] -0.092 | [17] -0.016 | [18] -0.025 | [19] 0.109 | [20] -0.036

NAXE (UniProt Q8NCW5)
inactive: [1] 0.012 | [2] 0.094 | [3] 0.136 | [4] -0.099 | [5] 0.036 | [6] 0.113 | [7] 0.021 | [8] -0.029 | [9] -0.017 | [10] 0.062 | [11] -0.031 | [12] 0.038 | [13] 0 | [14] 0.007 | [15] 0.043 | [16] -0.012 | [17] 0.082 | [18] 0.064 | [19] -0.049 | [20] -0.026
